Reference: patent publication KR20200090598A
Positions count from the first letter of the chain named. Results are given in words; binding and its absence hold for the method and conditions named. Some binding calls cover weakened binding; strength is not graded here.

Amino acid sequences for entries named in this document (tags omitted). A change or cut given only in a name is not applied to a line headed by its entry. Chains listed by the source or under a name are the forms on record and can include a tag or linker.
재조합 인간 메소텔린 (recombinant human mesothelin) (Q13421, form named): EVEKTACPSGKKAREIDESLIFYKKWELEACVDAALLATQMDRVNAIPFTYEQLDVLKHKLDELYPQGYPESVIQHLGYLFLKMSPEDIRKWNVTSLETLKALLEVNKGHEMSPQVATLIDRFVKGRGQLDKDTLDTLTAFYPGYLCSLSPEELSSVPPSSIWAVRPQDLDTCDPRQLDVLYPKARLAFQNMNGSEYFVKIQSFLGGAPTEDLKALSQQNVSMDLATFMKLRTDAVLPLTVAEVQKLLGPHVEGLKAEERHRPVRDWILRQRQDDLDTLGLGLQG

B1: MS501 scFv 단백질 (scFv)
scFv: EVQLLESGGGLVQPGGSLRLSCAASGFTFSNYAMSWVRQAPGKGLEWVSGIYPDSGSTYYADSVKGRFTISRDNSKNTLYLQMNSLRAEDTAVYYCARNIYTFDYWGQGTLVTVSSGGGGSGGGGSGGGGSQSVLTQPPSASGTPGQRVTISCSGSSSNIGSNAVSWYQQLPGTAPKLLIYYNNQRPSGVPDRFSGSKSGTSASLAISGLRSEDEADYYCGSWDSSLSGYVFGGGTKLTVLG
B2: MS503 scFv 단백질 (scFv)
scFv: B1 scFv with G50S, D54G, S55D, R98K, I100A, Y101F, N184S, Q185H, S222T
B3: C2G4 scFv 단백질 (scFv)
scFv: EVQLLESGGGLVQPGGSLRLSCAASGFTFSNYAMSWVRQAPGKGLEWVSGIPPDSGSKYYADSVRGRFTVSRDNSKNTLYLQMNSLRAEDTAVYYCAKNMLSFDYWGQGTLVTVSSGGGGSGGGGSGGGGSQSVLTQPPSASGTPGQRVTISCTGSSSNIGSNAVSWYQQLPGTAPKLLIYYNSKRPSGVPDRFSGSKSGTSASLAISGLRSEDEADYYCGSWDPSLNGYVFGGGTKVTVLG

Each binder was assayed against 재조합 인간 메소텔린 (recombinant human mesothelin) (human) (UniProt Q13421) (assay: ELISA; scFv coated at 200 ng/ml, rhMSLN at 100 ng/ml, detection antibody and streptavidin-HRP).

binding, binds:
B1, B2, B3
